Measurements published in PMC4055699.
Results are given in words; binding and its absence hold for the method and conditions named. Binding seen in cells or lysates may run through a third protein. Some entries that bind do so weakly or less than the wild type.

Chains of the proteins cited; added tags and fusions are not shown. Residues count along the entry.
UniProt Q8TEQ6: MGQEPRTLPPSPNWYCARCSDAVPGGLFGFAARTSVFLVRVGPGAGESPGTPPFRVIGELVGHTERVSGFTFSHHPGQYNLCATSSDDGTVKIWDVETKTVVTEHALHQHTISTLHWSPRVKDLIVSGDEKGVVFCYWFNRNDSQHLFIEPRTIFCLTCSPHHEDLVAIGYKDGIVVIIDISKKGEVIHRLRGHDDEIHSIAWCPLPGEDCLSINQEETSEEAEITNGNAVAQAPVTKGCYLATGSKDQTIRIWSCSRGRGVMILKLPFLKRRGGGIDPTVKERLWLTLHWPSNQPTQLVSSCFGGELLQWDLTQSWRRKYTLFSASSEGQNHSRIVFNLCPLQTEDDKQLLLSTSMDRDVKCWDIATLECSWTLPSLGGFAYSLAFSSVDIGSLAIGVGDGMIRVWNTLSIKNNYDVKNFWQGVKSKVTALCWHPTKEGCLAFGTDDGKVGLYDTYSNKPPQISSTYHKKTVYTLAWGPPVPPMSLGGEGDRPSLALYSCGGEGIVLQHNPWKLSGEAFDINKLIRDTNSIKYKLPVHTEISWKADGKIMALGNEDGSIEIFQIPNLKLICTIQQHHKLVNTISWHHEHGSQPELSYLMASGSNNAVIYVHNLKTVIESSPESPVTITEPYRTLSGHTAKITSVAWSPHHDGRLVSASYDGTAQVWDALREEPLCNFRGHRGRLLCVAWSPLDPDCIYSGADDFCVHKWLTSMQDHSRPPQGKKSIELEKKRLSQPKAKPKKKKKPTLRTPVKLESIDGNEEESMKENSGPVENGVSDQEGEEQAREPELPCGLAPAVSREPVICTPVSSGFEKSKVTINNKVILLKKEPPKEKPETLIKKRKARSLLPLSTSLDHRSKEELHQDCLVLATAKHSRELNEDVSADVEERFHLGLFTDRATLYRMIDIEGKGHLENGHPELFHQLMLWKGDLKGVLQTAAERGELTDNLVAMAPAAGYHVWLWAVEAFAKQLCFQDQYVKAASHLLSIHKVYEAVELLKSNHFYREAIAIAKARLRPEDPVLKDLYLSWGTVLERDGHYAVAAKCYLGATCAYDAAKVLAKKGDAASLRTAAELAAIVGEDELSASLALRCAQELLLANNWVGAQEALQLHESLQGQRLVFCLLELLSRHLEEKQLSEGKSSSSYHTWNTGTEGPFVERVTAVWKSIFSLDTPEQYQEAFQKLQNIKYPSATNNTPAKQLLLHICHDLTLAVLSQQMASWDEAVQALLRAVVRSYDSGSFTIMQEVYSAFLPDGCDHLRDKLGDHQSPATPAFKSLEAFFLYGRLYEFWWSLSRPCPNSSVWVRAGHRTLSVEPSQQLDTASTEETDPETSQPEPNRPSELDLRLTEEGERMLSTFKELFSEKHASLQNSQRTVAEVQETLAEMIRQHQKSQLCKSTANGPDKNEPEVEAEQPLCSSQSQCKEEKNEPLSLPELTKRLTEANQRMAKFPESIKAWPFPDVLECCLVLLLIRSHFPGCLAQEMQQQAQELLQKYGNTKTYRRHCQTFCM
UniProt Q16637: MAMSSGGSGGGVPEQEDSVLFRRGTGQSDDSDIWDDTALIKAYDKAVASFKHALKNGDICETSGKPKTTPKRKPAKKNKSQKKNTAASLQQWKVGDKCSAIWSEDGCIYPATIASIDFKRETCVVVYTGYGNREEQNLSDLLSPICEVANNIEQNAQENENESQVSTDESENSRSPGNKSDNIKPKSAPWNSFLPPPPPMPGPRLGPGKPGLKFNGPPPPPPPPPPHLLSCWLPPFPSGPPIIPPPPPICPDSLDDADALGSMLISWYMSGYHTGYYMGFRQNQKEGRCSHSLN
UniProt Q9UHI6: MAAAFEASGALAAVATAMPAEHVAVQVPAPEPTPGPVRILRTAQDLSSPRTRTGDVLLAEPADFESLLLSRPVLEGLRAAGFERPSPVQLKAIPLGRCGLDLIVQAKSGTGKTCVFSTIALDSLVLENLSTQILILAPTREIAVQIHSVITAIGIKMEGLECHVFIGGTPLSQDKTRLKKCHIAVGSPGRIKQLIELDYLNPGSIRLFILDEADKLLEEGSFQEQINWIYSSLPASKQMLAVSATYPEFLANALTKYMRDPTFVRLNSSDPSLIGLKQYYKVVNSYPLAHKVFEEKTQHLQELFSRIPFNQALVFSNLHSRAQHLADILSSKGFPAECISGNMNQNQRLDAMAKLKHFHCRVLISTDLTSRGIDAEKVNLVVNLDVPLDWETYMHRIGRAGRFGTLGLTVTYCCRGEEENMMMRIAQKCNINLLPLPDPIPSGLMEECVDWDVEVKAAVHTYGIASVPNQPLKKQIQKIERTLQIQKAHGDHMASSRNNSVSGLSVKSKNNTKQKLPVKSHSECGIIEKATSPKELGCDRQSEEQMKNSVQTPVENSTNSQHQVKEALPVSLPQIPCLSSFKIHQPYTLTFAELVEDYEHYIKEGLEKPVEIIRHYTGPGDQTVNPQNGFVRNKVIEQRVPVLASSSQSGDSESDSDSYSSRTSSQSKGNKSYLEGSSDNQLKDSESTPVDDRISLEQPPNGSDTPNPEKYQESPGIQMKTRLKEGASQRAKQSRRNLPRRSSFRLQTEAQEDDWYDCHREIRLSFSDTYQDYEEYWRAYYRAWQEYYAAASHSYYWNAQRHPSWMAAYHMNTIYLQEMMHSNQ
UniProt O96028, residues 782-1365: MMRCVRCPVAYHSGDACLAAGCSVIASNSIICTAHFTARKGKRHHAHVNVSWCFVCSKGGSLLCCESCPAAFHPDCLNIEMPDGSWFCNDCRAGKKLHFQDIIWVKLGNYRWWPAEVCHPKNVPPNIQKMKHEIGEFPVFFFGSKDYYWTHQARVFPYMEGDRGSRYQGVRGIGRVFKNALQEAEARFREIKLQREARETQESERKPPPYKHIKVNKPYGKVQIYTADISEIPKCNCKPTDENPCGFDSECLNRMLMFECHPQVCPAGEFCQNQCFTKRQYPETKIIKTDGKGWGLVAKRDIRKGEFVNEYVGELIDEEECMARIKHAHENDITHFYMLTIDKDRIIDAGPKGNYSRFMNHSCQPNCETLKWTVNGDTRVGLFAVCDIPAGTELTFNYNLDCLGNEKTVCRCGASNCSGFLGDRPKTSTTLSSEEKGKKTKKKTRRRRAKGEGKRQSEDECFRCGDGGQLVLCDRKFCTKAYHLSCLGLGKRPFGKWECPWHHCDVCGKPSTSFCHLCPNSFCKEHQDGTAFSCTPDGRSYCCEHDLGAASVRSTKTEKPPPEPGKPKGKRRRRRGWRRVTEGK

Experiments:
[1] = molecular target: Gem-associated protein 5 (human (endogenous in H929)) (UniProt Q8TEQ6); assay: co-IP; untransduced H929 lysate in RSB buffer (100 mM NaCl, 2.5 mM MgCl2, 0.1% NP40, 10 mM Hepes pH 7.4); IP with 2 µg anti-GEMIN5, anti-SMN or normal mouse IgG, 2 hours at 4°C, Protein G magnetic beads; western blot
[2] = molecular target: Survival motor neuron protein (human (endogenous in H929)) (UniProt Q16637); assay: as above

With “Probable ATP-dependent RNA helicase DDX20 (from UniProt Q9UHI6 1-824)” the binding [1] was “binds” and the binding [2] was “binds”.

For “endogenous REIIBP (from UniProt O96028-4 1-584)”, the binding [1] was “binds” and the binding [2] was “binds”.
